PubChem BioAssay AID1259254 – NCATS, 2017

- Purpose: 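Finding genes that stop cells copying their DNA twice in one cycle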 (primary screen)
- Cells: human HCT116 colorectal cancer cells
- Reagents: single siRNA against human genes
- Time to read-out: 3 days
- Read-out: 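Imaged Hoechst DNA stain sorts each cell into a cycle phase by DNA amount; per plate, G2 fraction set to 0% for non-targeting and 100% for GMNN siRNA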
- Reading the numbers: G2 robust z-score and G2 cells, % of GMNN control: higher = more G2 cells, more excess DNA replication
- Rule for the call: 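Active siRNAs have a G2 robust z of 5 or more median absolute deviations over the median, which in these data means about 38% or higher of GMNN control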
Shown is a random part of about 59,000 reagents tested. In the full data, about 1,550 (2.6%) are marked active. 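G2 share is only a proxy for re-replication; each gene was hit by three separate siRNAs, and active genes were retested.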 Unmarked entries are inactive. Not all columns of the deposit are shown. Not given: the amount of reagent.

SERPINE3 [SID160770152] showed G2 robust z-score 0.547; G2 cells, % of GMNN control 6.82. Against SERPINE3 [SID160770153], the values are G2 robust z-score 0.714; G2 cells, % of GMNN control 7.99. After knock-down of SERPINE3 [SID160770154], the screen gave G2 robust z-score -0.761; G2 cells, % of GMNN control -2.39. GADD45G [SID160729499] scored G2 robust z-score -0.608; G2 cells, % of GMNN control -1.31. Silencing of GADD45G [SID160729500] came out at: G2 robust z-score -0.504; G2 cells, % of GMNN control -0.575. Knock-down of GADD45G [SID160729501] resulted in: G2 robust z-score 0.352; G2 cells, % of GMNN control 5.44.

Depletion of ZNF747 [SID160731765] resulted in: G2 robust z-score -1.04; G2 cells, % of GMNN control -4.35. After knock-down of ZNF747 [SID160748369], the screen gave G2 robust z-score -0.593; G2 cells, % of GMNN control -1.2. ZNF747 [SID160748370] scored G2 robust z-score -1.66; G2 cells, % of GMNN control -8.74. Depletion of KCNS3 [SID160776255] gave: G2 robust z-score -1.32; G2 cells, % of GMNN control -6.29. With knock-down of KCNS3 [SID160776257], the record shows G2 robust z-score 0.848; G2 cells, % of GMNN control 8.94. KCNS3 [SID160776258] gave G2 robust z-score -1.05; G2 cells, % of GMNN control -4.44.

LIPN [SID160768883] gave G2 robust z-score -0.14; G2 cells, % of GMNN control 1.98. With knock-down of LIPN [SID160768884], the screen gave G2 robust z-score -0.792; G2 cells, % of GMNN control -2.61. LIPN [SID160768885] scored G2 robust z-score 0.456; G2 cells, % of GMNN control 6.18. With knock-down of FAR1 [SID160751858] the results were G2 robust z-score -1.25; G2 cells, % of GMNN control -5.8. After knock-down of FAR1 [SID160751859], the screen gave G2 robust z-score 3.45; G2 cells, % of GMNN control 27.2. With knock-down of FAR1 [SID160751860] the results were G2 robust z-score 3.2; G2 cells, % of GMNN control 25.5.

Against DARS2 [SID160743085] the deposit lists G2 robust z-score -0.991; G2 cells, % of GMNN control -4.01. After knock-down of DARS2 [SID160743086] the results were G2 robust z-score -1.39; G2 cells, % of GMNN control -6.78. DARS2 [SID160743087] gave G2 robust z-score -0.841; G2 cells, % of GMNN control -2.95. MCF2L [SID160735868] showed G2 robust z-score -0.692; G2 cells, % of GMNN control -1.9. With knock-down of MCF2L [SID160735869] the results were G2 robust z-score -0.481; G2 cells, % of GMNN control -0.418. Knock-down of MCF2L [SID160735870] gave: G2 robust z-score 0.418; G2 cells, % of GMNN control 5.91.

Depletion of ZNF280B [SID160757938] resulted in: G2 robust z-score 0.117; G2 cells, % of GMNN control 3.79. ZNF280B [SID160757939] scored G2 robust z-score -0.495; G2 cells, % of GMNN control -0.517. For ZNF280B [SID160757940] the deposit lists G2 robust z-score -0.877; G2 cells, % of GMNN control -3.2. SMPD4 [SID160743941] showed G2 robust z-score 0.301; G2 cells, % of GMNN control 5.08. Against SMPD4 [SID160743942], the entry reads G2 robust z-score 1.22; G2 cells, % of GMNN control 11.6. After knock-down of SMPD4 [SID160743943], the screen gave G2 robust z-score 0.578; G2 cells, % of GMNN control 7.04.

No new results follow: an excerpt of the list.
KCNS3 [SID160776255] | G2 robust z-score: -1.32; G2 cells, % of GMNN control: -6.29
KCNS3 [SID160776257] | G2 robust z-score: 0.848; G2 cells, % of GMNN control: 8.94
KCNS3 [SID160776258] | G2 robust z-score: -1.05; G2 cells, % of GMNN control: -4.44
LIPN [SID160768883] | G2 robust z-score: -0.14; G2 cells, % of GMNN control: 1.98
